Experiment in all cases: two-hybrid; yeast strain pJ69-4A; Gal4-AD fusions (pGAD-C1) and Gal4-BD fusions (pGBDU-C1); clones spotted as 1/5 dilutions on synthetic complete medium lacking leucine, uracil and histidine; 5 days at 28°C
Assay [1] addresses T1, Deinococcus radiodurans RecA, full length (D. radiodurans) (UniProt P42443).
T1 sequence: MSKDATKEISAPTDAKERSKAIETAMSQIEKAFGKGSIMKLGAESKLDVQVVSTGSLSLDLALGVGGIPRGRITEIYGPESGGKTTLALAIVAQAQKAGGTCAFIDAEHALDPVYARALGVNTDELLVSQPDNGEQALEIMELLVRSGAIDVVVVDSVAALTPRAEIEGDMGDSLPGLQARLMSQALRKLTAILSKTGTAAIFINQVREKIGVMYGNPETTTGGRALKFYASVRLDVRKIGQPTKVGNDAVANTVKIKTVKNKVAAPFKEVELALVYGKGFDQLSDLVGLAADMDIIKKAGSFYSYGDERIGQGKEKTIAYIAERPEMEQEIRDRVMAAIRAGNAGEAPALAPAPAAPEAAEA

Assay [2] addresses T2, Deinococcus radiodurans RecA-ΔN27 (D. radiodurans) (UniProt P42443).
T2 sequence: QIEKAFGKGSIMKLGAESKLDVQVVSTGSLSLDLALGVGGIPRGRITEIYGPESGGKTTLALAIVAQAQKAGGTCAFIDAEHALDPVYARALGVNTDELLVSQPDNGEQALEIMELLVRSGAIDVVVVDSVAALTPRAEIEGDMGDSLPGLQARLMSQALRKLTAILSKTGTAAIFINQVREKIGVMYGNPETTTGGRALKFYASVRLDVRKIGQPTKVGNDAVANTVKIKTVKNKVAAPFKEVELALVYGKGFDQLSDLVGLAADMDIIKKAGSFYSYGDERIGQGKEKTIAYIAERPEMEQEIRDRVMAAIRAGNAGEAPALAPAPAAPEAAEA

For assay [3], the target named is Deinococcus radiodurans DprA (D. radiodurans) (UniProt Q9RY31).

These are yes or no findings as the source states them, for the method shown. For some of these results: Binding calls can cover weak binding; strength is not graded here.

Regarding “Deinococcus radiodurans DprA (from UniProt Q9RY31)”, the binding entry in assay [1] is “no binding”; in assay [2] it was “binds”.

B1: Deinococcus radiodurans DdrB (protein, UniProt Q9RY80 1-188)
chain: MLQIEFITDLGARVTVNVEHESRLLDVQRHYGRLGWTSGEIPSGGYQFPIENEADFDWSLIGARKWKSPEGEELVIHRGHAYRRRELEAVDSRKLKLPAAIKYSRGAKVSDPQHVREKADGDIEYVSLAIFRGGKRQERYAVPGGAAGNGQGRPAPQGQPAQARPQATAARPAARPPVQPGQEEETPF
Turning to B1, the binding entry in assay [3] is on record as “no binding”.

B2: Deinococcus radiodurans RecO (protein, UniProt Q9RW50 1-244)
chain: MRSRTANRSGIVIRRRVTPAGDIIVTLLTPQGKLKAIARGGVKGPLSSSLNLFHHVGVQVYQGPHNDLASVKQAVLEGALPTLAEPERYAFAHLMAEFADALFQEGEFSEQAFDLFAASLRGVAHQPDPEWVALVMSYKLLGLAGVIPQTARCARCGAPDPEHPDPLGGQLLCSKCAALPPYPPAVLDFLRHAVRRTVRASFEQPVPSADRPALWRALEKFVTVQVGGVHSWRQLVPSGVPVLS
As to B2, the binding entry in assay [3] was “no binding”.

Values taken from paper PMC7314969, “Natural Transformation in Deinococcus radiodurans: A Genetic Analysis Reveals the Major Roles of DprA, DdrB, RecA, RecF, and RecO Proteins”.
